Data as given in patent US12545653B2, “Compound as PPAR agonist and application thereof” (USA Elixiria Biotech Inc., priority 2019, dated 2026).

Tested on: APP/PS1 transgenic mice
Test: Alzheimer's disease model, eight-arm radial water maze and brain gene expression
Assay type: in vivo, mouse
Conditions: 30 days in food
Source text: A common indicator used in academia in memory and dementia experiments is the number of errors in the water maze (reference memory). More errors mean poorer memory. On the last 3 days of dosing, eight-arm radial water maze was used by experimenters who were blind to drug treatment. As a classic experimental instrument, to detect slight deficits in learning and memory, the eight-arm water maze is more sensitive than not only Morris maze, but also Six-arm radial water maze. For details, see reference 8: Alamed J et al. Two-day radial-arm water maze learning and memory task; robust resolution of amyloid-related memory deficits in transgenic mice [J]. […] This experiment uses an eight-arm water maze built in accordance with the above literature. The eight-arm water maze is placed in a basin with an interior diameter of 102 cm. Each arm measures 30 cm long, 14.5 cm wide, and 40 cm high. Escape platform is located at the end of one of the arms. In the reference memory version of the task described here, the goal arm is held constant for all trials, with a different start arm on successive trials. On day one, mice received 12 trials, with trials alternating between visible and hidden platform. On day 2 and 3, mice received 12 additional trials but the platform was kept hidden throughout the trials. Entry into an incorrect arm was scored as a spatial reference error. Errors were averaged into three trial blocks, with four blocks per day, e.g., the first block (the 1st to 3rd trial), the second block (the 4th to 6th trial), and so on. […]. The line charts were made with the number of blocks as the abscissa and the average of the number of errors as the ordinate. At the end of the experiments, the cerebral cortex and hippocampus of the mice were removed, RNA was extracted, and the expression of many genes was analyzed by semi-quantitative RT-PCR. […] The difference is significant with P<0.05.

## COc1cc2c(cc1OC)C(=O)C(CC1CCN(Cc3ccccc3)CC1)C2 (stereo not drawn) [donepezil, reference compound]
10 mg/kg body weight/day (donepezil 3 mg/kg body weight/day), 5 on the first day
  number of errors in water maze on the third day: ~1
10 mg/kg body weight/day (donepezil 3 mg/kg body weight/day), eight-arm water maze
  reduction in the number of errors (reference memory), third day compared with first day: significant
RT-PCR
  expression levels of neuroprotective genes in the brain (klotho, MnSOD, Prx-2, Gng11, GluN2B, Bcl-xl) versus control group: None of the abovementioned gene expression levels in donepezil group was significantly increased
